Results are given in words; binding and its absence hold for the method and conditions named. Binding seen in cells or lysates may run through a third protein. A yes stands for co-enrichment or nearness to the bait. Other partners may have been found. Values belong to the binder of their own block, whether it stands above or below them.
Biological target: Recombinant His-tagged P8 protein (Lactobacillus rhamnosus KCTC 12202BP)
Assay: affinity purification with mass spectrometry; His-tagged P8 held on Ni2+-NTA resin, incubated with soluble DLD-1 lysate for 24 h at 4 °C, washed with PBS, eluted with 20 mM HEPES pH 7.5, 150 mM NaCl, 300 mM imidazole; SDS-PAGE, in-gel trypsin digestion, LC-MS/MS; overlap of three independent experiments; resin without P8 as negative control; only the target purified

binding: binds
B1: Sentrin-specific protease 2 (protein, UniProt Q9HC62 1-589)
chain: MYRWLVRILGTIFRFCDRSVPPARALLKRRRSDSTLFSTVDTDEIPAKRPRLDCFIHQVKNSLYNAASLFGFPFQLTTKPMVTSACNGTRNVAPSGEVFSNSSSCELTGSGSWNNMLKLGNKSPNGISDYPKIRVTVTRDQPRRVLPSFGFTLNSEGCNRRPGGRRHSKGNPESSLMWKPQEQAVTEMISEESGKGLRRPHCTVEEGVQKEEREKYRKLLERLKESGHGNSVCPVTSNYHSSQRSQMDTLKTKGWGEEQNHGVKTTQFVPKQYRLVETRGPLCSLRSEKRCSKGKITDTETMVGIRFENESRRGYQLEPDLSEEVSARLRLGSGSNGLLRRKVSIIETKEKNCSGKERDRRTDDLLELTEDMEKEISNALGHGPQDEILSSAFKLRITRGDIQTLKNYHWLNDEVINFYMNLLVERNKKQGYPALHVFSTFFYPKLKSGGYQAVKRWTKGVNLFEQEIILVPIHRKVHWSLVVIDLRKKCLKYLDSMGQKGHRICEILLQYLQDESKTKRNSDLNLLEWTHHSMKPHEIPQQLNGSDCGMFTCKYADYISRDKPITFTQHQMPLFRKKMVWEILHQQLL

binding: binds
B2: F-box only protein 21 (protein, UniProt O94952 1-628)
chain: MAAAAVDSAMEVVPALAEEAAPEVAGLSCLVNLPGEVLEYILCCGSLTAADIGRVSSTCRRLRELCQSSGKVWKEQFRVRWPSLMKHYSPTDYVNWLEEYKVRQKAGLEARKIVASFSKRFFSEHVPCNGFSDIENLEGPEIFFEDELVCILNMEGRKALTWKYYAKKILYYLRQQKILNNLKAFLQQPDDYESYLEGAVYIDQYCNPLSDISLKDIQAQIDSIVELVCKTLRGINSRHPSLAFKAGESSMIMEIELQSQVLDAMNYVLYDQLKFKGNRMDYYNALNLYMHQVLIRRTGIPISMSLLYLTIARQLGVPLEPVNFPSHFLLRWCQGAEGATLDIFDYIYIDAFGKGKQLTVKECEYLIGQHVTAALYGVVNVKKVLQRMVGNLLSLGKREGIDQSYQLLRDSLDLYLAMYPDQVQLLLLQARLYFHLGIWPEKSFCLVLKVLDILQHIQTLDPGQHGAVGYLVQHTLEHIERKKEEVGVEVKLRSDEKHRDVCYSIGLIMKHKRYGYNCVIYGWDPTCMMGHEWIRNMNVHSLPHGHHQPFYNVLVEDGSCRYAAQENLEYNVEPQEISHPDVGRYFSEFTGTHYIPNAELEIRYPEDLEFVYETVQNIYSAKKENIDE
